The supplement of paper PMC12819154, “High-throughput peptide-centric local stability assay extends protein–ligand identification to membrane proteins, tissues and bacteria” (Nature Structural & Molecular Biology, 2025)
The other results are listed elsewhere or left out. Most entries show no effect beyond the scatter of the controls.

Protein sequences, listed by entry. Tags and fused reporters are not part of them. Lines headed by an entry give the natural chain unless they say otherwise; changes in a name come on top.
UniProt P0DMC5: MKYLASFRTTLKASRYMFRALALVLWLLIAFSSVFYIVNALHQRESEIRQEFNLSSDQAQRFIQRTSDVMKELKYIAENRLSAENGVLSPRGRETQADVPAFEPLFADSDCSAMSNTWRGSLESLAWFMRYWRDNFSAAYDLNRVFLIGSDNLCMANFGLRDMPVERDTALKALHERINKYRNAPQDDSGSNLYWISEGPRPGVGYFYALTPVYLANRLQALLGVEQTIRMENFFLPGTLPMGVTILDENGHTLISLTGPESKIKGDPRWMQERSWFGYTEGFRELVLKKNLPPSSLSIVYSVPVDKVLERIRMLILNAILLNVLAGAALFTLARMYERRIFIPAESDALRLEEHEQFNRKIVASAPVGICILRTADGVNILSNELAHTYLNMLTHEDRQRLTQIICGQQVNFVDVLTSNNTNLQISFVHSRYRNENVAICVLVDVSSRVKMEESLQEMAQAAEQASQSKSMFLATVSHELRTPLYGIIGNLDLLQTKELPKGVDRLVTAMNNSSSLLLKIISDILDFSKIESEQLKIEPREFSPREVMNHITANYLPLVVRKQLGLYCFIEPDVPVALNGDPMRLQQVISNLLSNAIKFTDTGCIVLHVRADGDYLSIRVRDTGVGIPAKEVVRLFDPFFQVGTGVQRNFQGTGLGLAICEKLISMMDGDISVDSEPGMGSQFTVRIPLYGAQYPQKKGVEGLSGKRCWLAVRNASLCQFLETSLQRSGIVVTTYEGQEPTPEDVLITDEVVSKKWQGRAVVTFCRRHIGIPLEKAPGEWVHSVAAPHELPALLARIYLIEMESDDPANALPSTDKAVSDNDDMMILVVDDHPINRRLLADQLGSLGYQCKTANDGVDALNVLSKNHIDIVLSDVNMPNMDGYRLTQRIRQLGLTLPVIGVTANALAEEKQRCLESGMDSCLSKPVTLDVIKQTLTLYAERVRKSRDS
UniProt P15977: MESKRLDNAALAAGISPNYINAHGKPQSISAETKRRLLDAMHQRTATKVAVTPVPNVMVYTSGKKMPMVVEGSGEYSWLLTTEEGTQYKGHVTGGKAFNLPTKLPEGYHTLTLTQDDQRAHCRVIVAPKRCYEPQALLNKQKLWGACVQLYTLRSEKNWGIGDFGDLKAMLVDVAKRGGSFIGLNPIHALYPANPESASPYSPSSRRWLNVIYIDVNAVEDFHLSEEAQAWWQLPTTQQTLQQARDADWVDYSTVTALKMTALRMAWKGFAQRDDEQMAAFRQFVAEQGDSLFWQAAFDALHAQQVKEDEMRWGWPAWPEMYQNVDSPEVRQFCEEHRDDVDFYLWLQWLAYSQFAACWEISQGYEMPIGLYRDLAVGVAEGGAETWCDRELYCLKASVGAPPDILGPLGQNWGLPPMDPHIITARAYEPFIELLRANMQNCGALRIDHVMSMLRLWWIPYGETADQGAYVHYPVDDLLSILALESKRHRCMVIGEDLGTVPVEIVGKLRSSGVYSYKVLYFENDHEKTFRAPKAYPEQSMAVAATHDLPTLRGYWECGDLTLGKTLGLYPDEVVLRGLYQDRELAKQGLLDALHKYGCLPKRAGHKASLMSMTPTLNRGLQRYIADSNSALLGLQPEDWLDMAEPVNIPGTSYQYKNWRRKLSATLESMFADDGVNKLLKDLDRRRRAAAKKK
UniProt P0CF91: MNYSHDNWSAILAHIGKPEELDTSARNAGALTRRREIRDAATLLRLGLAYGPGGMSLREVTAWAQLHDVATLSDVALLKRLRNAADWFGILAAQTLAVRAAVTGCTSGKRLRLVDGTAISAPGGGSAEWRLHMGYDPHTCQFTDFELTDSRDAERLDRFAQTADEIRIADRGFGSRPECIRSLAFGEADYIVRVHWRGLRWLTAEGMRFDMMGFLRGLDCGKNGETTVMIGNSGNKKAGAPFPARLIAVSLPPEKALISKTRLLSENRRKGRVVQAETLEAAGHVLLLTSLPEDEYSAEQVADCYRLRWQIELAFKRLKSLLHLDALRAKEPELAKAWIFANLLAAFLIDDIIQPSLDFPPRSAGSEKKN
UniProt P0DN74: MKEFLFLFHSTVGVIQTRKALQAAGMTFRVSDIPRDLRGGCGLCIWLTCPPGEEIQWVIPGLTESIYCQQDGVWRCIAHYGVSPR
UniProt P13857: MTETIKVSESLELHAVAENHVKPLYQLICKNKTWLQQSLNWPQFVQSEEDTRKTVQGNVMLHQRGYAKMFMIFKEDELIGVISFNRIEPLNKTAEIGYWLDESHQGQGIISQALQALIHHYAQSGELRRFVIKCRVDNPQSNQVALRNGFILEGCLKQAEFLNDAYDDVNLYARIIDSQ
UniProt P12999: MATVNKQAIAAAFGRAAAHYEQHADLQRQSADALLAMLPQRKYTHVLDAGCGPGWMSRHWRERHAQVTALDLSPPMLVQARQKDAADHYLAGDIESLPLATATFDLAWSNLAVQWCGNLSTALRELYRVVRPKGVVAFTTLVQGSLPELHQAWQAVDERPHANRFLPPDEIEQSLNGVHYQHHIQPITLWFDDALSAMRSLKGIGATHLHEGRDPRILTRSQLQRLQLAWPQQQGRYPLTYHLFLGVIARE
UniProt P15047: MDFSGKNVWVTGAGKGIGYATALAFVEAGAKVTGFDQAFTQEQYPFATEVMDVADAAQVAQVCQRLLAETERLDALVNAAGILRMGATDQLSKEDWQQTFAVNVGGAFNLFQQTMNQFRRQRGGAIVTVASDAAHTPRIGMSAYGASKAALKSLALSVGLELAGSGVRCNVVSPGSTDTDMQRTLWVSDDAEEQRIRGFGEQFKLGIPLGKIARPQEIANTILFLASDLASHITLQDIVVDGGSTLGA
UniProt P10443: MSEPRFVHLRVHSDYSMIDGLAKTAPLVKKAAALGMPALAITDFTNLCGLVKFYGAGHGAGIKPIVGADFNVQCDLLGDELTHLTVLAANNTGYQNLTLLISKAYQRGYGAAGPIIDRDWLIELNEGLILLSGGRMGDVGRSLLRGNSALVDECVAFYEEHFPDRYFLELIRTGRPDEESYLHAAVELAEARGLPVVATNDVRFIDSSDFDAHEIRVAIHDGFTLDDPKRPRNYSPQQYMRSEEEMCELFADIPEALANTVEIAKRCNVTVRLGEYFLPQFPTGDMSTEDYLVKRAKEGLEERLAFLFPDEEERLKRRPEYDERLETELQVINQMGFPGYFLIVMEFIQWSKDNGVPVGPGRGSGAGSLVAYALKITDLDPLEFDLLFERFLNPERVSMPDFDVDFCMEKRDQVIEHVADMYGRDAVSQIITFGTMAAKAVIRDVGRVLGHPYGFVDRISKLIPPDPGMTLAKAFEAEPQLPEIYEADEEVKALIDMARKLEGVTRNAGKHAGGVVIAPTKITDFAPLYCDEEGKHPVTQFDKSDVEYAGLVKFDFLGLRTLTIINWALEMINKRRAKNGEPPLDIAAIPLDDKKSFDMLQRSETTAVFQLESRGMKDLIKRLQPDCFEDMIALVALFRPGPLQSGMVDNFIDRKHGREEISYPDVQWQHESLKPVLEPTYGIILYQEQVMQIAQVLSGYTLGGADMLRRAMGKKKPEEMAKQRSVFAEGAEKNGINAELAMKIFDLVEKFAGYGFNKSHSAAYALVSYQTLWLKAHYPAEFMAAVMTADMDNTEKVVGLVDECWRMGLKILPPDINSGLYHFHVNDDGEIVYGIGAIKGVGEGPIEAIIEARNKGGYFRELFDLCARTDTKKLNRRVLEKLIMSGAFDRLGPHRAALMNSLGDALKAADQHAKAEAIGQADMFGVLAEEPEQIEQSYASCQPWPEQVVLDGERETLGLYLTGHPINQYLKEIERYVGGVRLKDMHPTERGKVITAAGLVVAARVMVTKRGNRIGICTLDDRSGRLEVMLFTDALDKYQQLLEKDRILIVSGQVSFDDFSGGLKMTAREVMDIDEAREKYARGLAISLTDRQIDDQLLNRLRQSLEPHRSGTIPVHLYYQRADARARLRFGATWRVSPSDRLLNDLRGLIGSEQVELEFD
UniProt P21363: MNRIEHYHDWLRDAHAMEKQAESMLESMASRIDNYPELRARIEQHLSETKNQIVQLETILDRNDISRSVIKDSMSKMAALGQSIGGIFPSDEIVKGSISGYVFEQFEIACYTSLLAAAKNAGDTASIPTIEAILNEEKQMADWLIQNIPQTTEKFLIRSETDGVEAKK
UniProt P22634: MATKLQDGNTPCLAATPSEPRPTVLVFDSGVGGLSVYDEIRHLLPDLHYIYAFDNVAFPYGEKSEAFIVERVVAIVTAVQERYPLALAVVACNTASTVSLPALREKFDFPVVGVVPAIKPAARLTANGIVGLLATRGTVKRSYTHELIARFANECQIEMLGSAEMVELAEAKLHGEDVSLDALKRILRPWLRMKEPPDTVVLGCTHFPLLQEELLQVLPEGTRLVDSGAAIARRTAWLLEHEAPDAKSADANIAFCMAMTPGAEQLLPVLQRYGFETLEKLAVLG
UniProt P23847: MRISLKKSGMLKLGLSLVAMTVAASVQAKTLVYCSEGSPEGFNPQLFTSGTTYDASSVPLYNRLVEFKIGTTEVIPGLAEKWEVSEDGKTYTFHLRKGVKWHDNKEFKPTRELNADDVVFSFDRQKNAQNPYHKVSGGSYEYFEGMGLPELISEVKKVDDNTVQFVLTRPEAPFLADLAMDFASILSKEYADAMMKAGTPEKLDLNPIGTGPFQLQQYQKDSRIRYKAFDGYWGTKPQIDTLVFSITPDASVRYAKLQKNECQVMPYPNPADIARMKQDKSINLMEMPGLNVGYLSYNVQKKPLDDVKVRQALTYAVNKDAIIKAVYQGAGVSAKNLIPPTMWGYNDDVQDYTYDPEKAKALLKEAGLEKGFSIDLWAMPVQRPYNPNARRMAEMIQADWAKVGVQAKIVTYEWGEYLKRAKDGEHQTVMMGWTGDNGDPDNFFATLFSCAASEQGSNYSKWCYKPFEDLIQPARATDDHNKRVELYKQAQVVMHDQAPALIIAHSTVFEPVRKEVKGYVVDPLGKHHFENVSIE

Compound: CC1(C)S[C@@H]2[C@H](NC(=O)[C@H](N)c3ccccc3)C(=O)N2[C@H]1C(=O)O [ampicillin]
Assay: log2 fold change of tryptic peptide abundance, ligand vs vehicle (limited proteolysis) (log2 ratio); higher = more trypsin-susceptible (destabilized)
Conditions: ligand concentration: 10 uM; sample: E. coli crude lysate

Target	log2 fold change
UniProt P0DMC5 (peptide sequence: SMFLATVSHELR, peptide start residue: 471)	0.294
UniProt P15977 (peptide sequence: RKLSATLESMFADDGVNK, peptide start residue: 661)	1.07
UniProt P0CF91 (peptide sequence: FDMMGFLR, peptide start residue: 209)	-0.51
UniProt P0DN74 (peptide sequence: ALQAAGMTFR, peptide start residue: 20)	0.0681
UniProt P13857 (peptide sequence: NGFILEGCLK, peptide start residue: 148)	-0.0994
UniProt P12999 (peptide sequence: YTHVLDAGCGPGWMSR, peptide start residue: 43)	0.614
UniProt P15047 (peptide sequence: GGAIVTVASDAAHTPR, peptide start residue: 123)	0.254
UniProt P10443 (peptide sequence: AALMNSLGDALK, peptide start residue: 896)	0.214
UniProt P21363 (peptide sequence: SVIKDSMSK, peptide start residue: 68)	-0.077
UniProt P22634 (peptide sequence: HLLPDLHYIYAFDNVAFPYGEK, peptide start residue: 42)	0.405
UniProt P23847 (peptide sequence: QALTYAVNKDAIIK, peptide start residue: 311)	-0.257

Random excerpt: two entries already listed, in no set order.
Target	log2 fold change
UniProt P23847 (peptide sequence: QALTYAVNKDAIIK, peptide start residue: 311)	-0.257
UniProt P0CF91 (peptide sequence: FDMMGFLR, peptide start residue: 209)	-0.51
